PMC6071992
Results are given in words; binding and its absence hold for the method and conditions named. Binding seen in cells or lysates may run through a third protein. A yes stands for co-enrichment or nearness to the bait. Other partners may have been found. Where a sequence is shown, tags or fusion partners need not be part of it.

The chains behind the UniProt entries cited, without tags or fusion partners.
UniProt Q13951: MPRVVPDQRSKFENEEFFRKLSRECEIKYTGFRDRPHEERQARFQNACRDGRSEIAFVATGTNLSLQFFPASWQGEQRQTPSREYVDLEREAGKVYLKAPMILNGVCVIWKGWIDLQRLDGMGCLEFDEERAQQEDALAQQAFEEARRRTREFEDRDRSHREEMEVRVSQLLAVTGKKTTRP
UniProt O43812: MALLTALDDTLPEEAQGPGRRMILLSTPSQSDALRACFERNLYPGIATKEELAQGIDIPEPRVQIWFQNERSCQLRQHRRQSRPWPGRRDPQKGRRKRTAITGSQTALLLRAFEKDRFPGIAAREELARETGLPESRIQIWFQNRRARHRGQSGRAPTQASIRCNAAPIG
UniProt Q96PT4: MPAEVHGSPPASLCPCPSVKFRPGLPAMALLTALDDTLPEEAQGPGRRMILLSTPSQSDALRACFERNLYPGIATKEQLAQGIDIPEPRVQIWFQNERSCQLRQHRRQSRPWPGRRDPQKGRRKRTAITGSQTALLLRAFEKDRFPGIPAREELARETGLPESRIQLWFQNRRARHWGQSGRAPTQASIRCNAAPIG
UniProt P0CJ85: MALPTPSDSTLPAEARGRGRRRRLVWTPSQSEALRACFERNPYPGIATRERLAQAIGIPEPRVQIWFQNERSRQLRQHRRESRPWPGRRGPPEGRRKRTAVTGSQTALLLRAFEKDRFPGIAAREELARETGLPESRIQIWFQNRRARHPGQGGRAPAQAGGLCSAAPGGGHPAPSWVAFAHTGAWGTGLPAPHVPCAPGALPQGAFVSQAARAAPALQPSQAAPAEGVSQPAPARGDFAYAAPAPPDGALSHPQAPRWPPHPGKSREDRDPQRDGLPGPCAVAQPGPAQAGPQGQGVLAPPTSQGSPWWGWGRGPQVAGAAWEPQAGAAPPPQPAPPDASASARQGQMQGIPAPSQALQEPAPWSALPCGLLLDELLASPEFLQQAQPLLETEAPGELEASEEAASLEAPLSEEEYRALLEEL
UniProt Q6RFH8: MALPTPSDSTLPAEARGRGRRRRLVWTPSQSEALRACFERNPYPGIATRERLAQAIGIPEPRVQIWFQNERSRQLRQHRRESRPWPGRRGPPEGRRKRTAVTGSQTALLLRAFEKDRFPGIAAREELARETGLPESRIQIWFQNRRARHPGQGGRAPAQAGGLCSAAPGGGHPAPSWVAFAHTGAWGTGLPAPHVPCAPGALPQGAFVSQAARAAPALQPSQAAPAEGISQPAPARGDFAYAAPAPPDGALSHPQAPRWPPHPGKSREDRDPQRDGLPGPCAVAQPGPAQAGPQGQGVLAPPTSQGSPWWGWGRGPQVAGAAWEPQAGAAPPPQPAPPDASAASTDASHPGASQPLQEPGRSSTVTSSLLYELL
UniProt P56915: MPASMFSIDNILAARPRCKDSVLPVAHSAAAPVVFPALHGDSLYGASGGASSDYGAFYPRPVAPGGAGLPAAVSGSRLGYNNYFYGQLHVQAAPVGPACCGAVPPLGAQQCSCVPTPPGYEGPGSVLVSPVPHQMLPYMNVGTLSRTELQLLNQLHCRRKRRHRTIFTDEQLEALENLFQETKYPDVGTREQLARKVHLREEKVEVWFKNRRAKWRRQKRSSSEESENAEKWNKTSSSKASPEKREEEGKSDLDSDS
UniProt Q7RTP6: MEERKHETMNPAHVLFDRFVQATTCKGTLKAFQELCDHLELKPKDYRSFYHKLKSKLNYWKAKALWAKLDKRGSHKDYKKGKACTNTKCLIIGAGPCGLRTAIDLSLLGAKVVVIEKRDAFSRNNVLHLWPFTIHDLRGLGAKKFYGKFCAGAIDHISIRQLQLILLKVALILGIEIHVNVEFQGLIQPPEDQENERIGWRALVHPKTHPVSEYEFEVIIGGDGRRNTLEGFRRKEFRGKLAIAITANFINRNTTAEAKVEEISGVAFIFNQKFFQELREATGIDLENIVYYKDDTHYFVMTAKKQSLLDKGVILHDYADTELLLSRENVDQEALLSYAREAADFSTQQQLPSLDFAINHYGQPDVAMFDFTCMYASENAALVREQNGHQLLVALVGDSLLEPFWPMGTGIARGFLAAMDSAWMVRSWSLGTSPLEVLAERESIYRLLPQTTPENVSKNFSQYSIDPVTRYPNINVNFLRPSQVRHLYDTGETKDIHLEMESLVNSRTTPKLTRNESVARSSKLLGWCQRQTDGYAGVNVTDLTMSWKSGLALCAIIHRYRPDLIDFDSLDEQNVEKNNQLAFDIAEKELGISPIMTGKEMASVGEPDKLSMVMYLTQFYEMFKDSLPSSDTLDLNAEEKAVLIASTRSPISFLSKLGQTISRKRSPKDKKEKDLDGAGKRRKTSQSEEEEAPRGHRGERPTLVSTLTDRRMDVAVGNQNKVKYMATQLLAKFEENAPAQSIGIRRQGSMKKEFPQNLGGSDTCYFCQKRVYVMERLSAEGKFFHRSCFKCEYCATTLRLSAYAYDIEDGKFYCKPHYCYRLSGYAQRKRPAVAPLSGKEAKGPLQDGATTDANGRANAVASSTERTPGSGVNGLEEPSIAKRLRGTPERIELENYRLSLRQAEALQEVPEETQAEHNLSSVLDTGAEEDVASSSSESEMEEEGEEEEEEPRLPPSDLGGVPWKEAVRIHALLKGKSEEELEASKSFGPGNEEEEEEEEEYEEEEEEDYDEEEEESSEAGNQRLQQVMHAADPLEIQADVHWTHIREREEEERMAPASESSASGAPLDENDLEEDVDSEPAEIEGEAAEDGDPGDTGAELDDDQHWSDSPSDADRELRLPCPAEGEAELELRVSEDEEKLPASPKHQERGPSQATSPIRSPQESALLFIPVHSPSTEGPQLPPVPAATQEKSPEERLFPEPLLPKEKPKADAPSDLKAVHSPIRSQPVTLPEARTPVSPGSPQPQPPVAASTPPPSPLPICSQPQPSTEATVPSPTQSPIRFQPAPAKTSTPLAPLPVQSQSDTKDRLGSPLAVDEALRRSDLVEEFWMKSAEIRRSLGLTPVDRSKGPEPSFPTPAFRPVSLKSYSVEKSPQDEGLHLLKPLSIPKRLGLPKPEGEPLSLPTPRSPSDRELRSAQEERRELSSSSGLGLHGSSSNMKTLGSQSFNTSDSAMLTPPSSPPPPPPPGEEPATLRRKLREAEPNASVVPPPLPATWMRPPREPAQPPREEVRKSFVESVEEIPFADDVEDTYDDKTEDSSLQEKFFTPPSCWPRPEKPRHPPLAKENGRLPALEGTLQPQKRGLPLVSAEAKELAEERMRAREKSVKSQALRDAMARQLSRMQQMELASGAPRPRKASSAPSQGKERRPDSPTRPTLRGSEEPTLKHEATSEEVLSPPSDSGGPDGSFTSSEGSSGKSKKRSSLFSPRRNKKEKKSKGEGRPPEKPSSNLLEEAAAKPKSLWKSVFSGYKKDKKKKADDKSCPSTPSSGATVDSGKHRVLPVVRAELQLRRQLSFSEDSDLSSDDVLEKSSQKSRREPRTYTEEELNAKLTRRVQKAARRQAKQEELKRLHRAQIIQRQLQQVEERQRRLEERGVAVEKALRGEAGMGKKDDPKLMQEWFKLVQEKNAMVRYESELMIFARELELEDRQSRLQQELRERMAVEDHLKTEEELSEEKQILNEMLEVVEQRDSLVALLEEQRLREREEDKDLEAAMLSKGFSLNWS
UniProt Q15154: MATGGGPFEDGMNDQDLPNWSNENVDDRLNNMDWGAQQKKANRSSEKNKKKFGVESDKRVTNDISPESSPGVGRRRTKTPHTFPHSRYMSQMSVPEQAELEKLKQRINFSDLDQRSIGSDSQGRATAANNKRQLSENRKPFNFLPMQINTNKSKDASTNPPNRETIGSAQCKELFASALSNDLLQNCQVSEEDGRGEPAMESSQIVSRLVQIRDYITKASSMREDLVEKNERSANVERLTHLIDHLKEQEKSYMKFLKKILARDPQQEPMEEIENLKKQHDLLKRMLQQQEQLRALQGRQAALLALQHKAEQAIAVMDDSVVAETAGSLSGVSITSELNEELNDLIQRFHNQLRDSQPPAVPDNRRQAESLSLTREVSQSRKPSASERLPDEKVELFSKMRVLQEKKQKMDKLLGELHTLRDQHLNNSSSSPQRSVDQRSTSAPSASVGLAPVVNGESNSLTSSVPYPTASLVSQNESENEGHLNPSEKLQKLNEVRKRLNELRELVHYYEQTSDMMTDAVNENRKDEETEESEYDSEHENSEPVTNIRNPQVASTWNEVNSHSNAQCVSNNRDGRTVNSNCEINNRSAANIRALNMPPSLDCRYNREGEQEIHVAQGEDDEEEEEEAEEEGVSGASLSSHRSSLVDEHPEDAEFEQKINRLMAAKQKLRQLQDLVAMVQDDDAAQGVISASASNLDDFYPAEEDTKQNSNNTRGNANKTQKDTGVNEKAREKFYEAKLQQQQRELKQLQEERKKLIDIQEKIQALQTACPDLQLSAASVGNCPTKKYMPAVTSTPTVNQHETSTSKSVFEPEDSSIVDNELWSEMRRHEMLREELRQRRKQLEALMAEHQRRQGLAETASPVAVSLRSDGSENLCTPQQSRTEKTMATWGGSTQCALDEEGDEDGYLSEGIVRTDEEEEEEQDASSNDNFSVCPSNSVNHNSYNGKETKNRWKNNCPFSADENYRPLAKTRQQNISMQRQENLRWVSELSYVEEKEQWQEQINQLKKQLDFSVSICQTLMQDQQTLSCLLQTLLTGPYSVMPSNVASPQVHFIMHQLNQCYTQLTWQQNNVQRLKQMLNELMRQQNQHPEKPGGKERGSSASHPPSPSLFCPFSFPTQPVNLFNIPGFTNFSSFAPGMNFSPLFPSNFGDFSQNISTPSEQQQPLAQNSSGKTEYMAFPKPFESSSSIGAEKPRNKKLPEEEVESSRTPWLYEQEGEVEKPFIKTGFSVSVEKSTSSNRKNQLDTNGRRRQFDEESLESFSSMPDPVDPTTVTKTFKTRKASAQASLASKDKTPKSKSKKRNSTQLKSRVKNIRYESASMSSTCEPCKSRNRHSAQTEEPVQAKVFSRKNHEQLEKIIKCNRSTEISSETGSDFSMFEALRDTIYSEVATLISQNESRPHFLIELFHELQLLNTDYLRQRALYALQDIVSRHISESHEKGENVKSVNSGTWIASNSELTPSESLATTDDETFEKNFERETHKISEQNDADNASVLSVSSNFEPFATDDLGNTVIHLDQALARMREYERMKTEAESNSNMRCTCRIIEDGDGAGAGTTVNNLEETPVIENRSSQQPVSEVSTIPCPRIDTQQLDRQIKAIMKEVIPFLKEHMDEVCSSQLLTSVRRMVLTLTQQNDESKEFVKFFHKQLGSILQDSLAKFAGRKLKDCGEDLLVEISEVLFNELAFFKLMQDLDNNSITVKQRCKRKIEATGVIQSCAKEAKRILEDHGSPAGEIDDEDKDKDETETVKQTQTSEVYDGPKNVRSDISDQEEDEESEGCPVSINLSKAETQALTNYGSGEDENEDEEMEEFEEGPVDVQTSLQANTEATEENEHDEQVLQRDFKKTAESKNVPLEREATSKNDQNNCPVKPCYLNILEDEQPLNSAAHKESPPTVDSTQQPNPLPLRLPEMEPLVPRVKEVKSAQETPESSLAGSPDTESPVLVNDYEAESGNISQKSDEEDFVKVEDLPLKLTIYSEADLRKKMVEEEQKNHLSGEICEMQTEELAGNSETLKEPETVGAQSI
UniProt Q99811: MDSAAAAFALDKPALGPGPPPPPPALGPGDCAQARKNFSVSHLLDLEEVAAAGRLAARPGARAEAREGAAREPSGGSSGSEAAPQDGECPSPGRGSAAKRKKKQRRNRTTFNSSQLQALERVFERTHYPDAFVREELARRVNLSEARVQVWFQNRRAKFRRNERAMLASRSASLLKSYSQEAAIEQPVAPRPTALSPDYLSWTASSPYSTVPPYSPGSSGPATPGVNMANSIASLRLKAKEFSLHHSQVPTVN
UniProt Q16385: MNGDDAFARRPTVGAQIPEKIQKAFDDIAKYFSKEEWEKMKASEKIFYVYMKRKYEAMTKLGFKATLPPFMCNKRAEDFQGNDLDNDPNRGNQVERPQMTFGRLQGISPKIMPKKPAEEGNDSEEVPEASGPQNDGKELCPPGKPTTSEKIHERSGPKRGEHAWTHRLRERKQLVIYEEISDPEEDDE
UniProt Q9H5I1: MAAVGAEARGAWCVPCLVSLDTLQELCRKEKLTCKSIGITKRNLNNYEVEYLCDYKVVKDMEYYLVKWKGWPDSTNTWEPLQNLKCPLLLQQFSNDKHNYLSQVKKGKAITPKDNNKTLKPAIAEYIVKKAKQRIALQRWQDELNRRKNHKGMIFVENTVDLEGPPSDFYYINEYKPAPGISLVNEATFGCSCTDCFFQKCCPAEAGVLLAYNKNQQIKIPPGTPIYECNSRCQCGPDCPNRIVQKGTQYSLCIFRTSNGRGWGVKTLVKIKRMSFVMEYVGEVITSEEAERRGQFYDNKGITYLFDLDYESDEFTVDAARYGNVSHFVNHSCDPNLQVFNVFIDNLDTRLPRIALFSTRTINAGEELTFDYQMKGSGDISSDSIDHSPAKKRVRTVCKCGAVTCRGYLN

B1: EVX1 (protein, UniProt P49640 1-407)
chain: MESRKDMVVFLDGGQLGTLVGKRVSNLSEAVGSPLPEPPEKMVPRGCLSPRAVPPATRERGGGGPEEEPVDGLAGSAAGPGAEPQVAGAAMLGPGPPAPSVDSLSGQGQPSSSDTESDFYEEIEVSCTPDCATGNAEYQHSKGSGSEALVGSPNGGSETPKSNGGSGGGGSQGTLACSASDQMRRYRTAFTREQIARLEKEFYRENYVSRPRRCELAAALNLPETTIKVWFQNRRMKDKRQRLAMTWPHPADPAFYTYMMSHAAAAGGLPYPFPSHLPLPYYSPVGLGAASAASAAASPFSGSLRPLDTFRVLSQPYPRPELLCAFRHPPLYPGPAHGLGASAGGPCSCLACHSGPANGLAPRAAAASDFTCASTSRSDSFLTFAPSVLSKASSVALDQREEVPLTR
B2: EVX2 (protein, UniProt Q03828 1-476)
chain: MMERIRKEMILMERGLHSPTAGKRFSNLSNSAGNAVLEALENSQHPARLSPRLPSAPLHSALGELPAKGKFEIDTLFNLQHTGSESTVSSEISSAAESRKKPGHYSEAAAEADMSSDVEVGCSALRSPGGLGAAQLKENNGKGYAESGSAAGTTTSASGSGLGSLHGGSGGSGGSAALGGSGSGADQVRRYRTAFTREQIARLEKEFYRENYVSRPRRCELAAALNLPETTIKVWFQNRRMKDKRQRLAMSWPHPADPSFYTYMMTHAAATGSLPYPFHSHVPLHYYPHVGVTAAAAAAAASGAAAAASSPFATSIRPLDTFRALSHPYSRPELLCSFRHPGLYQAPAAAAGLNSAASAAAAAAAAAAAASSAAAAGAPPSGGSAPCSCLSCHSSQSAAAAAAAAAAALGSRGGGGGGGGGGGGGGGGAGAGGGSDFGCSAAAPRSESGFLPYSAAVLSKTAVSPPDQRDEAPLTR
B3: PBX4 (protein, UniProt Q9BYU1 1-374)
chain: MAAPPRPAPSPPAPRRLDTSDVLQQIMAITDQSLDEAQARKHALNCHRMKPALFSVLCEIKEKTVVSIRGIQDEDPPDAQLLRLDNMLLAEGVCRPEKRGRGGAVARAGTATPGGCPNDNSIEHSDYRAKLSQIRQIYHSELEKYEQACREFTTHVTNLLQEQSRMRPVSPKEIERMVGAIHGKFSAIQMQLKQSTCEAVMTLRSRLLDARRKRRNFSKQATEVLNEYFYSHLNNPYPSEEAKEELARKGGLTISQVSNWFGNKRIRYKKNMGKFQEEATIYTGKTAVDTTEVGVPGNHASCLSTPSSGSSGPFPLPSAGDAFLTLRTLASLQPPPGGGCLQSQAQGSWQGATPQPATASPAGDPGSINSSTSN
B4: B9D2 (protein, UniProt Q9BPU9 1-175)
chain: MAEVHVIGQIIGASGFSESSLFCKWGIHTGAAWKLLSGVREGQTQVDTPQIGDMAYWSHPIDLHFATKGLQGWPRLHFQVWSQDSFGRCQLAGYGFCHVPSSPGTHQLACPTWRPLGSWREQLARAFVGGGPQLLHGDTIYSGADRYRLHTAAGGTVHLEIGLLLRNFDRYGVEC
B5: CCDC39 (protein, UniProt Q9UFE4 1-941)
chain: MSSEFLAELHWEDGFAIPVANEENKLLEDQLSKLKDERASLQDELREYEERINSMTSHFKNVKQELSITQSLCKARERETESEEHFKAIAQRELGRVKDEIQRLENEMASILEKKSDKENGIFKATQKLDGLKCQMNWDQQALEAWLEESAHKDSDALTLQKYAQQDDNKIRALTLQLERLTLECNQKRKILDNELTETISAQLELDKAAQDFRKIHNERQELIKQWENTIEQMQKRDGDIDNCALELARIKQETREKENLVKEKIKFLESEIGNNTEFEKRISVADRKLLKCRTAYQDHETSRIQLKGELDSLKATVNRTSSDLEALRKNISKIKKDIHEETARLQKTKNHNEIIQTKLKEITEKTMSVEEKATNLEDMLKEEEKDVKEVDVQLNLIKGVLFKKAQELQTETMKEKAVLSEIEGTRSSLKHLNHQLQKLDFETLKQQEIMYSQDFHIQQVERRMSRLKGEINSEEKQALEAKIVELRKSLEEKKSTCGLLETQIKKLHNDLYFIKKAHSKNSDEKQSLMTKINELNLFIDRSEKELDKAKGFKQDLMIEDNLLKLEVKRTREMLHSKAEEVLSLEKRKQQLYTAMEERTEEIKVHKTMLASQIRYVDQERENISTEFRERLSKIEKLKNRYEILTVVMLPPEGEEEKTQAYYVIKAAQEKEELQREGDCLDAKINKAEKEIYALENTLQVLNSCNNNYKQSFKKVTPSSDEYELKIQLEEQKRAVDEKYRYKQRQIRELQEDIQSMENTLDVIEHLANNVKEKLSEKQAYSFQLSKETEEQKPKLERVTKQCAKLTKEIRLLKDTKDETMEEQDIKLREMKQFHKVIDEMLVDIIEENTEIRIILQTYFQQSGLELPTASTKGSRQSSRSPSHTSLSARSSRSTSTSTSQSSIKVLELKFPASSSLVGSPSRPSSASSSSSNVKSKKSSK
B6: SYBU (protein, UniProt Q9NX95 1-663)
chain: MGPLRESKKEHRVQHHDKEISRSRIPRLILRPHMPQQQHKVSPASESPFSEEESREFNPSSSGRSARTVSSNSFCSDDTGCPSSQSVSPVKTPSDAGNSPIGFCPGSDEGFTRKKCTIGMVGEGSIQSSRYKKESKSGLVKPGSEADFSSSSSTGSISAPEVHMSTAGSKRSSSSRNRGPHGRSNGASSHKPGSSPSSPREKDLLSMLCRNQLSPVNIHPSYAPSSPSSSNSGSYKGSDCSPIMRRSGRYMSCGENHGVRPPNPEQYLTPLQQKEVTVRHLKTKLKESERRLHERESEIVELKSQLARMREDWIEEECHRVEAQLALKEARKEIKQLKQVIETMRSSLADKDKGIQKYFVDINIQNKKLESLLQSMEMAHSGSLRDELCLDFPCDSPEKSLTLNPPLDTMADGLSLEEQVTGEGADRELLVGDSIANSTDLFDEIVTATTTESGDLELVHSTPGANVLELLPIVMGQEEGSVVVERAVQTDVVPYSPAISELIQSVLQKLQDPCPSSLASPDESEPDSMESFPESLSALVVDLTPRNPNSAILLSPVETPYANVDAEVHANRLMRELDFAACVEERLDGVIPLARGGVVRQYWSSSFLVDLLAVAAPVVPTVLWAFSTQRGGTDPVYNIGALLRGCCVVALHSLRRTAFRIKT
B7: GAR1 (protein, UniProt Q9NY12 1-217)
chain: MSFRGGGRGGFNRGGGGGGFNRGGSSNHFRGGGGGGGGGNFRGGGRGGFGRGGGRGGFNKGQDQGPPERVVLLGEFLHPCEDDIVCKCTTDENKVPYFNAPVYLENKEQIGKVDEIFGQLRDFYFSVKLSENMKASSFKKLQKFYIDPYKLLPLQRFLPRPPGEKGPPRGGGRGGRGGGRGGGGRGGGRGGGFRGGRGGGGGGFRGGRGGGFRGRGH
B8: NCOA5 (protein, UniProt Q9HCD5 1-579)
chain: MNTAPSRPSPTRRDPYGFGDSRDSRRDRSPIRGSPRREPRDGRNGRDARDSRDIRDPRDLRDHRHSRDLRDHRDSRSVRDVRDVRDLRDFRDLRDSRDFRDQRDPMYDRYRDMRDSRDPMYRREGSYDRYLRMDDYCRRKDDSYFDRYRDSFDGRGPPGPESQSRAKERLKREERRREELYRQYFEEIQRRFDAERPVDCSVIVVNKQTKDYAESVGRKVRDLGMVVDLIFLNTEVSLSQALEDVSRGGSPFAIVITQQHQIHRSCTVNIMFGTPQEHRNMPQADAMVLVARNYERYKNECREKEREEIARQAAKMADEAILQERERGGPEEGVRGGHPPAIQSLINLLADNRYLTAEETDKIINYLRERKERLMRSSTDSLPGPISRQPLGATSGASLKTQPSSQPLQSGQVLPSATPTPSAPPTSQQELQAKILSLFNSGTVTANSSSASPSVAAGNTPNQNFSTAANSQPQQRSQASGNQPPSILGQGGSAQNMGPRPGAPSQGLFGQPSSRLAPASNMTSQRPVSSTGINFDNPSVQKALDTLIQSGPALSHLVSQTTAQMGQPQAPMGSYQRHY

biological target: T1, mouse TBX18 protein fused to a N-terminal triple FLAG tag followed by a biotinylation signal peptide (mouse) (UniProt Q9EPZ6); assay: affinity purification with mass spectrometry; tandem affinity purification of 3xFLAG-BioTag-TBX18 from nuclear extracts of transfected 293 cells (anti-FLAG M2 on Protein A agarose, 3xFLAG peptide elution, then Strep-Tactin Superflow), SDS-PAGE, LC-MS; three independent experiments against a mock control without exogenous TBX18
T1 sequence (chain, biotinylated on the biotinylation signal peptide by co-expressed BirA): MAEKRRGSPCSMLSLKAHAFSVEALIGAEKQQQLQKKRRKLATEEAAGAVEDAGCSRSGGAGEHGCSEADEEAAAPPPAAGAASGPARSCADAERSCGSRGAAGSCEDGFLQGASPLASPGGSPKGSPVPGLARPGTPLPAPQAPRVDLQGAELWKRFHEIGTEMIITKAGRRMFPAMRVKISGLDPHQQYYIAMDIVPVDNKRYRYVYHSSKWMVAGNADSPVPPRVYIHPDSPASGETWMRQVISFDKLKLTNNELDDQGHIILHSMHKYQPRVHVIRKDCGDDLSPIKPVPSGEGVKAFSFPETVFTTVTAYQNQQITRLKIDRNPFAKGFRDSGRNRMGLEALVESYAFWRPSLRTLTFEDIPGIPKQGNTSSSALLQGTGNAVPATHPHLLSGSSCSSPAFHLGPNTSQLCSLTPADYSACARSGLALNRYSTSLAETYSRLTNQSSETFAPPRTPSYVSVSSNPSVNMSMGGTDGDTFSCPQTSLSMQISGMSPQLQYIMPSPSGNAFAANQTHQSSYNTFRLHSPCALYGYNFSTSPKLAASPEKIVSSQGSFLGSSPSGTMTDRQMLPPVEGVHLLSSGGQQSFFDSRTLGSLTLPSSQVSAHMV

| Molecule | binding |
| --- | --- |
| CBFB (from UniProt Q13951 1-182) | binds |
| CENPE (from UniProt Q02224 1-2701) | binds |
| CEP89 (from UniProt Q96ST8 1-783) | binds |
| CHD7 (from UniProt Q9P2D1 1-2997) | binds |
| DUX1 (from UniProt O43812 1-170) | binds |
| DUX3 (from UniProt Q96PT4 1-197) | binds |
| DUX4 (from UniProt Q9UBX2 1-424) | binds |
| DUX4L2 (from UniProt P0CJ85 1-424) | binds |
| DUX4L4 (from UniProt P0CJ87 1-422) | binds |
| DUX4L9 (from UniProt Q6RFH8 1-374) | binds |
| DUX5 (from UniProt Q96PT3 1-197) | binds |
| GSC (from UniProt P56915 1-257) | binds |
| IKZF2 (from UniProt Q9UKS7 1-526) | binds |
| MACF1 (from UniProt Q9UPN3 1-7388) | binds |
| MICAL3 (from UniProt Q7RTP6 1-2002) | binds |
| PAX1 (from UniProt P15863 1-534) | binds |
| PCM1 (from UniProt Q15154 1-2024) | binds |
| PRRX2 (from UniProt Q99811 1-253) | binds |
| RCOR3 (from UniProt Q9P2K3 1-495) | binds |
| SSXB2 (from UniProt Q16385 1-188) | binds |
| SUV39H2 (from UniProt Q9H5I1 1-410) | binds |
| TPX2 (from UniProt Q9ULW0 1-747) | binds |
| B1 | binds |
| B2 | binds |
| B3 | binds |
| B4 | binds |
| B5 | binds |
| B6 | binds |
| B7 | binds |
| B8 | binds |
